Results published in the supplement of paper PMC10849652.
This is one part of the list.

Amino acid sequences for entries named in this document (tags omitted). A change or cut given only in a name is not applied to a line headed by its entry.
UniProt P06753, whole entry, looked up: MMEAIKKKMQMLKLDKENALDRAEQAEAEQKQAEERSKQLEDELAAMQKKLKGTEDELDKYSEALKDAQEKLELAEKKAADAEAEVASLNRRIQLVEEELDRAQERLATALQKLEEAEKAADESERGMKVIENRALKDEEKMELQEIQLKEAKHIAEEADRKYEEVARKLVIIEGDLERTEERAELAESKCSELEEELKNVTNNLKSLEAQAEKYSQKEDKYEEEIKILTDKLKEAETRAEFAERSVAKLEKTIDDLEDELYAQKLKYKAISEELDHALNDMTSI
UniProt Q71RG4: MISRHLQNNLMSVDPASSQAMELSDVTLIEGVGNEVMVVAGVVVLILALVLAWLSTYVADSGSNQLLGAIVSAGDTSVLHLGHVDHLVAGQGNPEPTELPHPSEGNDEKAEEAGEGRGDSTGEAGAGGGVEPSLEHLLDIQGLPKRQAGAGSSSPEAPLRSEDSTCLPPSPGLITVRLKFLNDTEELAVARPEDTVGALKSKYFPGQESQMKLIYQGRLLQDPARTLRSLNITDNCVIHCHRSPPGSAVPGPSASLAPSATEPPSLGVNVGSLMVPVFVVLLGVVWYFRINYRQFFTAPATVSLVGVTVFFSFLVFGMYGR
UniProt Q5T3F8: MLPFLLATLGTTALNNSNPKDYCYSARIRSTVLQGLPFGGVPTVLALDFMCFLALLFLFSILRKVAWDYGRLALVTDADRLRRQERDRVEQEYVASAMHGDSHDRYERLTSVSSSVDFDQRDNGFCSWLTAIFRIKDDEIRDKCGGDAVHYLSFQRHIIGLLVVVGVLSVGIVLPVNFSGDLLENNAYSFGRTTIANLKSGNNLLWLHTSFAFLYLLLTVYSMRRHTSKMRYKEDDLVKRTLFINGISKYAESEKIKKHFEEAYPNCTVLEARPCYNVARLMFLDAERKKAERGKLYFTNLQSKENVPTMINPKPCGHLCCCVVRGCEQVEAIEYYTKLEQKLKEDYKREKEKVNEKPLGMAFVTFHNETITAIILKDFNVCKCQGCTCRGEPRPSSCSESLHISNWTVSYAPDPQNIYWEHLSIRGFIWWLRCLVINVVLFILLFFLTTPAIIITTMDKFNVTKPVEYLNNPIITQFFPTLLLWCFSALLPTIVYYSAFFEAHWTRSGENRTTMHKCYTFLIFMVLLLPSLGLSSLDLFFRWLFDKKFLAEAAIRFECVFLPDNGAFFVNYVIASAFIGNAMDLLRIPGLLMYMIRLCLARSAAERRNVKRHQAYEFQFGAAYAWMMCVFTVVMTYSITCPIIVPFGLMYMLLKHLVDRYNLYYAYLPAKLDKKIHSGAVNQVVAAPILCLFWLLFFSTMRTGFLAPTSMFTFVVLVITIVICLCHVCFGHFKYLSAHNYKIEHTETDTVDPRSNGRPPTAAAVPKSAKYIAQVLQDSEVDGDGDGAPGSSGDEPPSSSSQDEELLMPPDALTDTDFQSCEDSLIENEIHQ
UniProt Q92973: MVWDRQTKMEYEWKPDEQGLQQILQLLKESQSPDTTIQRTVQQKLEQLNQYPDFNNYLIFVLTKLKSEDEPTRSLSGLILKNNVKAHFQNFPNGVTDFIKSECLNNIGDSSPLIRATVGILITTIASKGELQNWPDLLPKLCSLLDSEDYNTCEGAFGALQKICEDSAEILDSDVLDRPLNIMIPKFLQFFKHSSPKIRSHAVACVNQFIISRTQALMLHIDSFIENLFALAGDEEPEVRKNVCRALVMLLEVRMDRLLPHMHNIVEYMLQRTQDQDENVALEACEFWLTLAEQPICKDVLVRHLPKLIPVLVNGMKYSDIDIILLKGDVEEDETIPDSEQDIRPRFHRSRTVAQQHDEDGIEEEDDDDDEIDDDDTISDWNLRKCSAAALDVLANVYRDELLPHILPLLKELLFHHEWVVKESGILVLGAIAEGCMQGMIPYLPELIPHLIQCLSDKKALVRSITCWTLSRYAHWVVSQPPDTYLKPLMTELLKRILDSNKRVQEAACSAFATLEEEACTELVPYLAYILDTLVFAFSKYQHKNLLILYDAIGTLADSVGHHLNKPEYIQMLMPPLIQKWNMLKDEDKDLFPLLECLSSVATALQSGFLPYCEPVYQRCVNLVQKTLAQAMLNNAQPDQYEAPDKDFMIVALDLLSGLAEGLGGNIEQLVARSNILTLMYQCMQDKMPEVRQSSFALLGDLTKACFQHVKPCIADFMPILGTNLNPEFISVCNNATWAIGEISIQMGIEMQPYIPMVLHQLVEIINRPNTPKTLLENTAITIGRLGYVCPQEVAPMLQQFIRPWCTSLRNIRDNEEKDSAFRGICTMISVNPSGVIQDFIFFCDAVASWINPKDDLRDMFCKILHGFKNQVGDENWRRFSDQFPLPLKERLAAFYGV
UniProt Q15628: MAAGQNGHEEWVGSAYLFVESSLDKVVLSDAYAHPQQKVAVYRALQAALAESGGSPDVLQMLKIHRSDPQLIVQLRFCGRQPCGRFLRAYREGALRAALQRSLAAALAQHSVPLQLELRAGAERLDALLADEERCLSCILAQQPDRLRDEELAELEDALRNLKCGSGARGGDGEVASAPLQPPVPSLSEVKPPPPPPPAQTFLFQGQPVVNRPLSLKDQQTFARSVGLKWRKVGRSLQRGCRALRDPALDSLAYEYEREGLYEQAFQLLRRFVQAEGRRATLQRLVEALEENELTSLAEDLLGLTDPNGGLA
UniProt Q96HV5: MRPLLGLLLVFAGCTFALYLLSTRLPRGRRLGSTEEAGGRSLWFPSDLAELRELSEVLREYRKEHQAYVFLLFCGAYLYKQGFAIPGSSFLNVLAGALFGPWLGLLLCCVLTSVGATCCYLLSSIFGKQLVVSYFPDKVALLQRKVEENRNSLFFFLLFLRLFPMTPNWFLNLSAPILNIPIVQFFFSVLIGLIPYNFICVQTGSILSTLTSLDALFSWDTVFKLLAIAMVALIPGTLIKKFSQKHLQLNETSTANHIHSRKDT
UniProt Q8NDV7: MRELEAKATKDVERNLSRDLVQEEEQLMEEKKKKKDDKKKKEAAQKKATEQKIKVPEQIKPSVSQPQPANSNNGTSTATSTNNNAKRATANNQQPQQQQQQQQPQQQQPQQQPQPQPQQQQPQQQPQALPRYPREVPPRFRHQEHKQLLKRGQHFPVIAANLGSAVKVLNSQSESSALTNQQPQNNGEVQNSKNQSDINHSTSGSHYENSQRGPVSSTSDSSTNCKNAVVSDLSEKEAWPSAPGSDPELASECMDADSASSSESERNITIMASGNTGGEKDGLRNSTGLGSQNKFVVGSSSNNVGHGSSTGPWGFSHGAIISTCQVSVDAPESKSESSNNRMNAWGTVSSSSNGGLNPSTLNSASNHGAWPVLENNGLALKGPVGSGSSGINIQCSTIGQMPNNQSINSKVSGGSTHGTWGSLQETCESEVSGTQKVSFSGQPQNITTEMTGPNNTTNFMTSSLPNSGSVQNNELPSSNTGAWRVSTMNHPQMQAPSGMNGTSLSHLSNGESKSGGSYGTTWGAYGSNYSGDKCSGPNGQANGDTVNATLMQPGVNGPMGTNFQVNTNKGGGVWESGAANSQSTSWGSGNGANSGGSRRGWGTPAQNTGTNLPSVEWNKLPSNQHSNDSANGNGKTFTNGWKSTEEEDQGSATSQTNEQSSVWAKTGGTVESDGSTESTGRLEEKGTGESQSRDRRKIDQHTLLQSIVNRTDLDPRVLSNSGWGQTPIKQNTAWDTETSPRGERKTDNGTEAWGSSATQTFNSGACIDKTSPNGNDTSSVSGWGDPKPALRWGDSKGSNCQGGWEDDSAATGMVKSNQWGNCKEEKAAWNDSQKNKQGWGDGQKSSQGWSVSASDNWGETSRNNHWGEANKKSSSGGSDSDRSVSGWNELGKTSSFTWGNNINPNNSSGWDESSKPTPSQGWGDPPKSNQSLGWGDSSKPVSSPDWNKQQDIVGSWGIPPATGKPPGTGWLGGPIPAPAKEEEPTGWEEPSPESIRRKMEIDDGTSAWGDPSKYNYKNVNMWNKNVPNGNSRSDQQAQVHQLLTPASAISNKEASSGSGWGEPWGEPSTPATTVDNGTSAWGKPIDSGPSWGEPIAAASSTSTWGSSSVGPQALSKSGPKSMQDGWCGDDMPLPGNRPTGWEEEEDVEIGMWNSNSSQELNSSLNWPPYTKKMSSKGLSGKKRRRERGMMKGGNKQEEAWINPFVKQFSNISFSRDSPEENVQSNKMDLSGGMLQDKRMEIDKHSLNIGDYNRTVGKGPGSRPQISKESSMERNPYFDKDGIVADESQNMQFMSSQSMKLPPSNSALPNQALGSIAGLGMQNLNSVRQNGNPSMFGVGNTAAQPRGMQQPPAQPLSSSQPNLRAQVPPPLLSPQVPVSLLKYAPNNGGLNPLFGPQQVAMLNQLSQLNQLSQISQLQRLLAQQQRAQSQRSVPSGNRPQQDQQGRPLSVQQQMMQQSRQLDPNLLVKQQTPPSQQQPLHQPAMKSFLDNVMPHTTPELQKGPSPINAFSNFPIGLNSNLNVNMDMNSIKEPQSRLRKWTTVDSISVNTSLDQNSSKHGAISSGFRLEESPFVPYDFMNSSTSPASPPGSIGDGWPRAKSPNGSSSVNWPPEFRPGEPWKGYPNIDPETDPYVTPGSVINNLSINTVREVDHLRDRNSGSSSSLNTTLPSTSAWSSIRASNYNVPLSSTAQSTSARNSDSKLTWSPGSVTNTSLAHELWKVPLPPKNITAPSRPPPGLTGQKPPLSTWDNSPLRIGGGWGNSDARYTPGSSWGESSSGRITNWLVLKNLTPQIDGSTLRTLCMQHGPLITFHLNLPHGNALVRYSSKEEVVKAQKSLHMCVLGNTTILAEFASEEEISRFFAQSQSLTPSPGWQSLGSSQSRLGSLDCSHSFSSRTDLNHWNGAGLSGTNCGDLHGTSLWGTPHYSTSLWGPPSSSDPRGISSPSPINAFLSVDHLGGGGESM
UniProt Q969M1: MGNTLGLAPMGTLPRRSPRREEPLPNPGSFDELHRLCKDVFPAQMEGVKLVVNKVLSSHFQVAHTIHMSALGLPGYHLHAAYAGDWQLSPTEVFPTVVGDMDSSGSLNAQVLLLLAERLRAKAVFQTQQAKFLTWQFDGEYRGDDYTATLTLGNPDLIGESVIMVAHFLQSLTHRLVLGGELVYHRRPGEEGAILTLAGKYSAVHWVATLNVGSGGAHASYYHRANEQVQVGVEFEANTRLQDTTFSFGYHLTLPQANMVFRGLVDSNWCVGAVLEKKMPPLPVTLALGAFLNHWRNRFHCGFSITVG
UniProt O14763, whole entry, looked up: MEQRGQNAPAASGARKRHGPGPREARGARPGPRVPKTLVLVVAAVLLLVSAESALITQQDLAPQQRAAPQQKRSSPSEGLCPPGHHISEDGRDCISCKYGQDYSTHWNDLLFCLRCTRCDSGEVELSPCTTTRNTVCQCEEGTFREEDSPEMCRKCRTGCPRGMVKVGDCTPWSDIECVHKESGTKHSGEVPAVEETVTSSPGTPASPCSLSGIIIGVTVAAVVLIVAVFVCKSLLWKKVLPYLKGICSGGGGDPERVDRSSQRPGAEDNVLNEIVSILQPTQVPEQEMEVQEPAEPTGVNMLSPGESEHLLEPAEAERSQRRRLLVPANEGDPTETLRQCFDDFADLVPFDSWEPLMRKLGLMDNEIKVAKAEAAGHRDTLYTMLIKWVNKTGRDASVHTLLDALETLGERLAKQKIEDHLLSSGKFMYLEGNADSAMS
UniProt Q9BVT8: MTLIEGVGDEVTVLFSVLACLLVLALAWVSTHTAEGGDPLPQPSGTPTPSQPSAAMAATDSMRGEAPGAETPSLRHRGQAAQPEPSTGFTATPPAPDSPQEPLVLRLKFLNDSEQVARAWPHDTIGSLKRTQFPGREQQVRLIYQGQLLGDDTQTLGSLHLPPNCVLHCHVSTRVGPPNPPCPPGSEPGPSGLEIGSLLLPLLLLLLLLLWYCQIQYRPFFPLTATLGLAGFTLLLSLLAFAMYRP
UniProt Q9P0U1: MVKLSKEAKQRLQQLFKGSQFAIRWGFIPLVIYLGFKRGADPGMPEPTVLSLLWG
UniProt Q9NYL9: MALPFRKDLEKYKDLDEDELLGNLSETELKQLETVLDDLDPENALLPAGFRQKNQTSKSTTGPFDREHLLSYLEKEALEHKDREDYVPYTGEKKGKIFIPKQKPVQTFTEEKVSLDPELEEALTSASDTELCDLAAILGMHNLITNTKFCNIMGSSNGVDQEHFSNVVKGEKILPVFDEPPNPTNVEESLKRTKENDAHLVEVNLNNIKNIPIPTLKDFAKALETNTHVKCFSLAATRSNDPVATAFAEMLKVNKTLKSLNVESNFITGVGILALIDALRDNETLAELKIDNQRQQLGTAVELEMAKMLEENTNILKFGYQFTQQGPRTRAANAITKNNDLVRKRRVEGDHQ
UniProt P13693: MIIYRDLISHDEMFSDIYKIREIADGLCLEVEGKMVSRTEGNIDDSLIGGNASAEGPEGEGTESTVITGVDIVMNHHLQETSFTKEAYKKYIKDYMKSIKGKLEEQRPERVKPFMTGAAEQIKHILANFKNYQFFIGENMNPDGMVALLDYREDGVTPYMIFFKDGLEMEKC
UniProt P63313: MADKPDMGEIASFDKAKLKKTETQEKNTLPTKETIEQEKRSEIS

Key:
Experiment in all cases: log2 fold change, soluble protein after heating vs DMSO (PISA); higher = thermal stabilisation; K562 lysate, 10 uM; active = over 0.2 and 3.5 SD of the protein, either way, in both replicates (recomputed)
nilotinib = compound: Cc1cn(-c2cc(NC(=O)c3ccc(C)c(Nc4nccc(-c5cccnc5)n4)c3)cc(C(F)(F)F)c2)cn1 [nilotinib]
Procedure, shortened: (§1)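 Soluble protein was defined as the supernatant remaining after 21,000xg for 90 min, following pooling of heated aliquots and adjustment to 0.5% NP-40 at 4°C. Before that, crude K562 extract at 1 mg/mL protein in PBS pH 7.4 with 1 mM MgCl2 was treated with 10 μM compound for 30 min and heated for 3 min across 48°C-58°C. Quantification used TMTpro 16plex LC-MS/MS with channel sums equalised, and values are log-two fold changes in thermal stability relative to solvent controls from duplicates.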

[1] = compound: Cc1nc(Nc2n[nH]c3c2CN(C(=O)N[C@H](CN(C)C)c2ccccc2)C3(C)C)c2sccc2n1
Procedure, shortened: as §1

dasatinib = compound: Cc1nc(Nc2ncc(C(=O)Nc3c(C)cccc3Cl)s2)cc(N2CCN(CCO)CC2)n1 [dasatinib]
Procedure, shortened: as §1

[2] = compound: Cc1ncc(-c2ccnc(Nc3ccc(S(C)(=O)=O)cc3)n2)n1C(C)C
Procedure, shortened: as §1

[3] = compound: Cn1cc(-c2ccc3c(c2)CCN3C(=O)Cc2cccc(C(F)(F)F)c2)c2c(N)ncnc21
Procedure, shortened: as §1

quisinostat = compound: Cn1cc(CNCC2CCN(c3ncc(C(=O)NO)cn3)CC2)c2ccccc21 [quisinostat]
Procedure, shortened: as §1

tipifarnib = compound: Cn1cncc1[C@@](N)(c1ccc(Cl)cc1)c1ccc2c(c1)c(-c1cccc(Cl)c1)cc(=O)n2C [tipifarnib]
Procedure, shortened: as §1

[4] = compound: NC(=O)Nc1cc(-c2cccc(F)c2)sc1C(=O)N[C@H]1CCCNC1
Procedure, shortened: as §1

[5] = compound: NC(=O)c1cnc(N[C@@H]2CCCC[C@@H]2N)nc1Nc1cccc(-n2nccn2)c1
Procedure, shortened: as §1

[6] = compound: NC1(c2ccc(-c3nc4ccn5c(=O)[nH]nc5c4cc3-c3ccccc3)cc2)CCC1
Procedure, shortened: as §1

Row | Target | log2 fold change (nilotinib) | log2 fold change [1] | log2 fold change (dasatinib) | log2 fold change [2] | log2 fold change [3] | log2 fold change (quisinostat) | log2 fold change (tipifarnib) | log2 fold change [4] | log2 fold change [5] | log2 fold change [6]
1 | TPM3 (UniProt P06753) | inactive: 0.014 | inactive: -0.033 | inactive: 0.023 | inactive: 0.028 | inactive: -0.012 | inactive: 0.046 | inactive: 0.033 | inactive: -0.042 | inactive: -0.02 | inactive: 0.034
2 | TMUB2 (UniProt Q71RG4) | inactive: 0.006 | inactive: -0.048 | inactive: 0.04 | inactive: -0.024 | inactive: -0.061 | inactive: 0.003 | inactive: 0.126 | inactive: -0.113 | inactive: -0.004 | inactive: -0.048
3 | TMEM63B (UniProt Q5T3F8) | inactive: 0.044 | inactive: -0.021 | inactive: 0.101 | inactive: 0.027 | inactive: 0.036 | inactive: 0.01 | inactive: -0.013 | inactive: -0.022 | inactive: 0.001 | inactive: 0.029
4 | TMEM219 (UniProt Q86XT9) | inactive: -0.03 | inactive: -0.085 | inactive: 0.035 | inactive: -0.064 | inactive: -0.028 | inactive: -0.047 | inactive: -0.09 | inactive: 0.051 | inactive: -0.038 | inactive: -0.018
5 | TOM1L1 (UniProt O75674) | inactive: 0 | inactive: 0.066 | inactive: -0.01 | inactive: 0.02 | inactive: -0.048 | inactive: -0.023 | inactive: 0.025 | inactive: 0.018 | inactive: -0.003 | inactive: -0.003
6 | TOR1AIP1 isoform 3 (UniProt Q5JTV8) | inactive: 0.022 | inactive: 0.03 | inactive: -0.013 | inactive: -0.008 | inactive: 0.043 | inactive: 0.006 | inactive: -0.021 | inactive: 0.016 | inactive: 0.018 | inactive: 0.002
7 | TNPO1 (UniProt Q92973) | inactive: 0.005 | inactive: -0.011 | inactive: -0.028 | inactive: -0.004 | inactive: 0.016 | inactive: -0.07 | inactive: -0.021 | inactive: -0.001 | inactive: 0.01 | inactive: -0.025
8 | TOX4 (UniProt O94842) | inactive: -0.056 | inactive: -0.019 | inactive: 0.001 | inactive: 0.073 | inactive: 0.009 | inactive: -0.018 | inactive: -0.02 | inactive: -0.017 | inactive: 0.017 | inactive: 0.034
9 | TRADD (UniProt Q15628) | inactive: 0.009 | inactive: -0.02 | inactive: 0.065 | inactive: -0.013 | inactive: -0.002 | inactive: -0.018 | inactive: 0.053 | inactive: 0.044 | inactive: 0.01 | inactive: 0.041
10 | TMEM87A (UniProt Q8NBN3) | inactive: -0.009 | inactive: 0.055 | inactive: -0.007 | inactive: 0.027 | inactive: 0.03 | inactive: -0.021 | inactive: 0.024 | inactive: 0.003 | inactive: 0.03 | inactive: 0.017
11 | TMEM41A (UniProt Q96HV5) | inactive: 0.067 | inactive: -0.007 | inactive: 0.025 | inactive: -0.055 | inactive: 0.047 | inactive: 0.025 | inactive: -0.048 | inactive: -0.059 | inactive: -0.036 | inactive: 0.001
12 | TMX1 (UniProt Q9H3N1) | inactive: -0.011 | inactive: 0 | inactive: -0.021 | inactive: -0.031 | inactive: -0.008 | inactive: 0.125 | inactive: -0.025 | inactive: -0.022 | inactive: 0.123 | inactive: 0.039
13 | TNRC6A (UniProt Q8NDV7) | inactive: -0.092 | inactive: -0.016 | inactive: -0.021 | inactive: -0.014 | inactive: -0.098 | inactive: 0.226 | inactive: -0.172 | inactive: -0.043 | inactive: -0.014 | inactive: -0.023
14 | TPP2 (UniProt Q5VZU9) | inactive: 0.066 | inactive: 0.035 | inactive: -0.194 | inactive: -0.015 | inactive: 0.036 | inactive: 0.084 | inactive: -0.001 | inactive: 0.107 | inactive: -0.006 | inactive: -0.039
15 | TOMM40L (UniProt Q969M1) | inactive: -0.001 | inactive: -0.041 | inactive: 0.04 | inactive: -0.015 | inactive: -0.022 | inactive: -0.14 | inactive: 0.144 | inactive: 0.02 | inactive: -0.011 | inactive: -0.07
16 | TP53BP1 isoform 2 (UniProt Q12888) | inactive: 0.01 | inactive: 0.013 | inactive: 0.025 | inactive: -0.005 | inactive: 0 | inactive: -0.011 | inactive: -0.006 | inactive: 0.011 | inactive: -0.01 | inactive: 0.016
17 | TNFRSF10B (UniProt O14763) | inactive: 0.01 | inactive: -0.046 | inactive: 0.054 | inactive: 0.04 | inactive: -0.028 | inactive: 0.026 | inactive: -0.01 | inactive: -0.067 | inactive: 0.02 | inactive: 0.001
18 | TMUB1 (UniProt Q9BVT8) | inactive: -0.008 | inactive: -0.003 | inactive: -0.059 | inactive: 0.004 | inactive: 0.101 | inactive: -0.051 | inactive: -0.055 | inactive: 0.018 | inactive: -0.003 | inactive: -0.007
19 | TPRKB (UniProt Q9Y3C4) | inactive: -0.006 | inactive: 0.007 | inactive: 0.012 | inactive: 0.007 | inactive: -0.02 | inactive: -0.028 | inactive: -0.031 | inactive: 0.041 | inactive: 0.04 | inactive: 0.026
20 | TOMM7 (UniProt Q9P0U1) | inactive: 0.059 | inactive: 0.031 | inactive: 0.032 | inactive: 0.084 | inactive: -0.027 | inactive: -0.15 | inactive: -0.061 | inactive: 0.019 | inactive: -0.006 | inactive: -0.051
21 | TPM4 isoform 2 (UniProt P67936) | inactive: 0.052 | inactive: -0.048 | inactive: 0.059 | inactive: 0.076 | inactive: -0.011 | inactive: 0.122 | inactive: 0.024 | inactive: -0.039 | inactive: 0.029 | inactive: 0.02
22 | TPI1 (UniProt P60174) | inactive: -0.003 | inactive: 0.008 | inactive: -0.004 | inactive: 0.016 | inactive: -0.011 | inactive: -0.11 | inactive: 0.019 | inactive: 0.027 | inactive: -0.031 | inactive: -0.007
23 | TMOD3 (UniProt Q9NYL9) | inactive: -0.006 | inactive: -0.009 | inactive: 0.025 | inactive: 0.015 | inactive: -0.002 | inactive: -0.086 | inactive: -0.011 | inactive: 0.009 | inactive: 0.009 | inactive: -0.032
24 | TMTC3 (UniProt Q6ZXV5) | inactive: -0.044 | inactive: 0.014 | inactive: -0.012 | inactive: 0.036 | inactive: 0.056 | inactive: 0.081 | inactive: 0.023 | inactive: 0.004 | inactive: 0.019 | inactive: -0.002
25 | TPT1 (UniProt P13693) | inactive: 0.01 | inactive: -0.002 | inactive: 0 | inactive: 0.014 | inactive: -0.005 | inactive: 0.002 | inactive: -0.011 | inactive: 0.002 | inactive: -0.024 | inactive: -0.011
26 | TMEM208 (UniProt Q9BTX3) | inactive: -0.102 | inactive: 0.061 | inactive: -0.017 | inactive: -0.111 | inactive: 0.05 | inactive: -0.165 | inactive: -0.027 | inactive: 0.065 | inactive: -0.013 | inactive: 0.098
27 | TNIK isoform 4 (UniProt Q9UKE5) | inactive: -0.019 | inactive: 0.087 | inactive: 0.203 | inactive: 0.11 | inactive: -0.011 | inactive: -0.198 | inactive: -0.022 | active: 0.483 | inactive: 0.08 | inactive: -0.021
28 | TPM3 isoform 2 (UniProt P06753) | inactive: -0.048 | inactive: 0.019 | inactive: 0.012 | inactive: -0.005 | inactive: 0.014 | inactive: 0.14 | inactive: 0.06 | inactive: -0.024 | inactive: -0.003 | inactive: 0.047
29 | TMSB10 (UniProt P63313) | inactive: 0.046 | inactive: 0.022 | inactive: 0.022 | inactive: 0.258 | inactive: -0.313 | inactive: -0.055 | inactive: 0.102 | inactive: -0.072 | inactive: -0.081 | inactive: -0.02
30 | TOMM34 (UniProt Q15785) | inactive: 0.027 | inactive: -0.001 | inactive: -0.033 | inactive: -0.003 | inactive: -0.021 | inactive: -0.06 | inactive: -0.01 | inactive: 0.009 | inactive: -0.023 | inactive: 0.011

2 entries from above, reformatted.
Row	Target	log2 fold change (nilotinib)	log2 fold change [1]	log2 fold change (dasatinib)	log2 fold change [2]	log2 fold change [3]	log2 fold change (quisinostat)	log2 fold change (tipifarnib)	log2 fold change [4]	log2 fold change [5]	log2 fold change [6]
1	TPM3 (UniProt P06753)	inactive: 0.014	inactive: -0.033	inactive: 0.023	inactive: 0.028	inactive: -0.012	inactive: 0.046	inactive: 0.033	inactive: -0.042	inactive: -0.02	inactive: 0.034
2	TMUB2 (UniProt Q71RG4)	inactive: 0.006	inactive: -0.048	inactive: 0.04	inactive: -0.024	inactive: -0.061	inactive: 0.003	inactive: 0.126	inactive: -0.113	inactive: -0.004	inactive: -0.048
